Assay results reported in the supplement of paper PMC12823440, “Inhibitors supercharge kinase turnover through native proteolytic circuits” (Nature, 2025).
Counter-ions that a name gives are not always drawn. The list shows a part of the results. Hit calls seldom repeat between salt and free forms of one compound.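 In K562 cells expressing nanoluciferase-fused kinases, luminescence was recorded at 4 h intervals between 2 and 18 h, normalized as percent of control with DMSO at 100% and a positive control at 0%. A significant (2 sigma) signal drop marks a time point as decreased. The authors' rule for a hit is not shown and takes in more than the number of time points.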

Amino acid sequences for entries named in this document (tags omitted). A change or cut given only in a name is not applied to a line headed by its entry.
UniProt Q15208: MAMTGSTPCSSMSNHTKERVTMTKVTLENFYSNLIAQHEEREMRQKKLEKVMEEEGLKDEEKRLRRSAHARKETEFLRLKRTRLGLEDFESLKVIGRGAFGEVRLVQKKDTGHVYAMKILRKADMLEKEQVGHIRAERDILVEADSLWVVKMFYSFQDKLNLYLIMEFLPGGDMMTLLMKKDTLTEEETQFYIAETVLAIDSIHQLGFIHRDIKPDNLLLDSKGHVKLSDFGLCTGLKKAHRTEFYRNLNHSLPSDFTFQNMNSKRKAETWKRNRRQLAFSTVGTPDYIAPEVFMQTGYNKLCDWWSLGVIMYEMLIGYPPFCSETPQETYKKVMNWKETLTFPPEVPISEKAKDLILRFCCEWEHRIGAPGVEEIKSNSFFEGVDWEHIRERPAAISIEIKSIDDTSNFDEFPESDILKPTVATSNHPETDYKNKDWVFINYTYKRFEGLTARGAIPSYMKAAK

target: STK38 (UniProt Q15208); test: kinase-Nluc reporter destabilization hit call (1 = scored as downregulated) (binary); higher = compound decreases kinase abundance; conditions: K562; 2-18 h

kinase-Nluc reporter destabilization hit call, inactive:
NCc1ccc(Nc2ncc(F)c(Nc3ccccc3)n2)cc1 (10 µM) 0
C=C(C)C(=O)Nc1cccc(-c2ncnc3[nH]cc(C(=O)OCC)c23)c1 (10 µM) 0
CCOc1cc(C(=O)N2CCC(N3CCN(C)CC3)CC2)ccc1Nc1ncc2c(n1)N(C1CCCC1)c1ccccc1C(=O)N2C (10 µM) 0
CCOc1ccc(C(=O)Nc2ncc([N+](=O)[O-])s2)cc1 (10 µM) 0
CNC(=O)Nc1ccc(-c2cc(-c3ccnc(Nc4ccc(C)c(S(=O)(=O)N(C)C)c4)n3)ccn2)cc1 [hSMG-1 inhibitor 11e] (2.5 µM) 0
CNC(=O)c1ccc(-c2cnc3cnc(C(=O)N(C)c4ccc(Cl)cc4)cn23)cc1 (2.5 µM) 0
COc1cccc(-n2c(=O)[nH]c3cc(Cl)n(-c4ccc(-c5cccc(OC)c5O)cc4)c3c2=O)c1 (2.5 µM) 0
O=C(Nc1cccnc1)c1cc(C(=O)c2c(F)cccc2Br)c[nH]1 (10 µM) 0
CN(CC(=O)N(Cc1ccc(C2CCCCC2)cc1)c1ccc(C(=O)O)cc1)S(=O)(=O)c1c(F)c(F)c(F)c(F)c1F (2.5 µM) 0
COc1c(NC(=O)C(=O)c2ccc(OCCN3CCOCC3)c3ccccc23)cc(C(C)(C)C)cc1NS(C)(=O)=O (2.5 µM) 0
CC(C)CC1(O)CCN(C(=O)c2ccc(NS(=O)(=O)c3cccc4nccnc34)cc2)CC1 (10 µM) 0
O=C(/C=C/c1ccc(O)c(O)c1)c1ccc(O[C@@H]2O[C@H](CO)[C@@H](O)[C@H](O)[C@H]2O)c(O)c1O [Marein] (10 µM) 0
Cc1cc2cc(Nc3ccnc(Nc4ccc5[nH]c(C)cc5c4)n3)ccc2[nH]1 (2.5 µM) 0
Cc1cc(Nc2cc(Cl)nc(Oc3ccc([N+](=O)[O-])cc3)n2)n[nH]1 [Autophinib] (2.5 µM) 0
Fc1ccc(-c2nc(-c3ccccc3F)[nH]c2-c2ccncc2)cc1 (2.5 µM) 0
OC(COc1ccc(C(F)(F)F)cc1)CN(Cc1ccccc1)Cc1ccccc1 (centres undefined) (2.5 µM) 0
COc1ccc2[nH]cc(/C=C3\C(=O)Nc4ccc(NC(=O)CCN5CCCCC5)cc43)c2c1 (2.5 µM) 0
CS(=O)(=O)c1ccc(-c2noc(C(F)(F)F)c2-c2ccccc2)cc1 (10 µM) 0
COCCO[C@@H]1[C@H](O)[C@@H](CO)O[C@H]1n1cnc2c(=O)[nH]c(N)nc21 [2′-O-(2-Methoxyethyl)guanosine] (10 µM) 0
Cn1cnc(-c2cc3nccc(Oc4ccc(NC(=S)NC(=O)Cc5ccccc5)cc4F)c3s2)c1 [MGCD-265 analog] (10 µM) 0
Cc1noc(C)c1-c1ccc(-c2cc(C(N)=O)c(NC(N)=O)s2)c(O[C@H]2CCNC2)c1 (10 µM) 0
Cc1c(CN2CCN(S(C)(=O)=O)CC2)sc2c(N3CCOCC3)nc(-c3cnc(N)nc3)nc12 (2.5 µM) 0
CC(C)CN(CC(=O)N1CCN(CC(OCc2ccc3ccccc3c2)c2ccc(Cl)cc2Cl)CC1)CC(C)C (centres undefined) [LYN-1604 (dihydrochloride)] (2.5 µM) 0
CC/C=C\C/C=C\C/C=C\CCCCCCCC(=O)O [α-Linolenic acid] (10 µM) 0
Nc1ncnc2c1c(-c1ccc(Oc3ccccc3)cc1)nn2C1CCNCC1 [N-piperidine Ibrutinib (hydrochloride)] (10 µM) 0
CC(C)NC(=O)N1CC[C@H](NC2=Nc3cc(F)ccc3N(CC(F)F)c3ccc(Cl)cc32)C1 (10 µM) 0
O=C(Nc1cc(Oc2cc(F)c(NC(=O)C3(C(=O)Nc4ccc(F)cc4)CC3)cc2F)ccn1)C1CC1 [Altiratinib] (10 µM) 0
COCCOc1ccc(-c2cn(-c3ccccc3)c3nc[nH]c(=O)c23)cc1 (10 µM) 0
Cc1ccc2nc(NC(=O)CSc3nc4c(c(=O)n3-c3ccccc3)SCC4)sc2c1 (2 µM) 0
C[C@]1(O)CCC[C@@H]1n1c(=O)c(C(F)F)cc2cnc(NC3CCN(S(C)(=O)=O)CC3)nc21 (10 µM) 0
NC1(Cc2ccc(Cl)cc2)CCN(c2ncnc3[nH]ccc23)CC1 (10 µM) 0
O=C(O)c1cc(O)ccc1O [2,5-Dihydroxybenzoic acid] (10 µM) 0
C=C(CCC=C(C)C)[C@H]1CC[C@]2(C)[C@@H]1[C@H](O)C[C@@H]1[C@@]3(C)CC[C@H](O[C@@H]4O[C@H](CO)[C@@H](O)[C@H](O)[C@H]4O[C@@H]4O[C@H](CO)[C@@H](O)[C@H](O)[C@H]4O)C(C)(C)[C@@H]3CC[C@]12C [Ginsenoside Rk1] (10 µM) 0
CC(C)=CC[C@H](O)C1=CC(=O)c2c(O)ccc(O)c2C1=O [(-)-Alkannin] (2.5 µM) 0
N#Cc1c(-c2ccccc2)cc(-c2cc(Br)ccc2O)[nH]c1=O (10 µM) 0
CCn1c(-c2nonc2N)nc2cnc(Oc3cccc(NC(=O)c4ccc(OCCN5CCOCC5)cc4)c3)cc21 (10 µM) 0
CO[C@H]1C[C@@H]2CC[C@@H](C)[C@@](O)(O2)C(=O)C(=O)N2CCCC[C@H]2C(=O)O[C@H]([C@H](C)C[C@@H]2CC[C@@H](O)[C@H](OC)C2)CC(=O)[C@H](C)/C=C(\C)[C@@H](O)[C@@H](OC)C(=O)[C@H](C)C[C@H](C)/C=C/C=C/C=C/1C [Rapamycin] (10 µM) 0
CC(C)=CCC[C@](C)(O[C@@H]1O[C@H](CO)[C@@H](O)[C@H](O)[C@H]1O)[C@H]1CC[C@]2(C)[C@@H]1[C@H](O)C[C@@H]1[C@@]3(C)CC[C@H](O)C(C)(C)[C@@H]3[C@@H](O[C@@H]3O[C@H](CO)[C@@H](O)[C@H](O)[C@H]3O[C@@H]3O[C@@H](C)[C@H](O)[C@@H](O)[C@H]3O)C[C@]12C [Ginsenoside Re] (10 µM) 0
Cn1c(=O)c(F)c(Nc2ccc(I)cc2F)c2c(=O)n(C[C@@H](O)CO)cnc21 (10 µM) 0

2 entries drawn at random from those above:
kinase-Nluc reporter destabilization hit call, inactive:
Nc1ncnc2c1c(-c1ccc(Oc3ccccc3)cc1)nn2C1CCNCC1 [N-piperidine Ibrutinib (hydrochloride)] (10 µM) 0
Cc1cc2cc(Nc3ccnc(Nc4ccc5[nH]c(C)cc5c4)n3)ccc2[nH]1 (2.5 µM) 0
